At least one compound was matched to its structure with a doubt left.
Test system: PR
Assay: CAT reporter transactivation by PR with TIF2 coexpression
Assay type: cell-based, human
Settings: HeLa, Cos-1 cells

SMILES: CC#C[C@]1(O)CC[C@H]2[C@@H]3CCC4=CC(=O)CCC4=C3[C@@H](c3ccc(N(C)C)cc3)C[C@@]21C [RU 486]
- stimulation by TIF2 of transactivation by antagonist-bound PR: did not lead to any stimulation

From US6861508B2, “Transcriptional intermediary factor-2” (Institut National de la Sante et de la Recherche Medicale, priority 1996, dated 2005)
